For at least one compound, name, drawing or mass did not settle the structure.
How the values were obtained:
[1] = test system: expression of d2EGFP in human colon cancer COLO 320DM cells; assay: Change over time of d2EGFP expression after induction with Doxycycline in cells cotransfected with pSFVdhfr/d2EGFP and pTet-ON plasmid (Example 8); type: cell-based; details: fluorescence microscopic images; polyclonal population; 1 μg/ml Doxycycline
Experimental: Fluorescence intensity of these cells were measured by using a cell sorter. The measurement was carried out by sorting 20,000 cells by setting living cells at a gate. The cell sorter used was made by Becton Dickinson, and operated under conditions as described in the manual attached thereto.
In this method for detecting the fluorescence intensity, detection limit was 1, and all fluorescence intensities of 1 or less would be detected as 1. In view of this, a product of a ratio (cell %) of cells of fluorescence intensities of 2 or more in all living cells (10,000 cells) and an average of the fluorescence intensities of the cells having fluorescence intensities of 2 or more was calculated out for each experimental plot. This product is referred to as “accumulated fluorescence intensity” hereinafter and in later Examples and shown in boxed letter in the figures. […]
Next, after the expression of d2EGFP was induced by Doxycycline, the level of the expression of d2EGFP was analyzed by using a cell sorter so as to find a change in the level of the expression of d2EGFP over time. […] In FIG. 16, the value in parenthesis is an average of fluorescence intensities (i.e., average fluorescence intensity), and boxed value is an accumulated fluorescence intensity. […]

[2] = test system: heterochromatized HSR in human colon cancer COLO 320DM cells; assay: Fluorescence microscopy of HSR (LacR-CFP) and RNA (MS2-YFP) before and after induction with Doxycycline (Example 8); type: cell-based; details: 1 μg/ml Doxycycline, 1.5 hours after induction; clone with coamplified pSFVdhfr and pECMS2Beta

C[C@H]1c2cccc(O)c2C(=O)C2=C(O)[C@]3(O)C(=O)C(C(N)=O)=C(O)[C@@H](N(C)C)[C@@H]3[C@@H](O)[C@@H]21 [Doxycycline]
fluorescence intensity of d2EGFP after versus before the addition [1]: increased | structure of HSR after the induction of the expression [2]: loosened up largely

From patent US8771983B2, “Method and kit for expressing protein under regulation of the expression from repeated sequence formed by gene amplification, and transformant” (National University of Corporation Hiroshima University, priority 2004, dated 2014)
